# Measurements reported in PubChem BioAssay AID1224830 (NIAID, 2016)
# Assay: 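Host factors that control LPS-induced TNF expression in human macrophages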 (primary screen)
# Cell system: human THP-1 monocytic leukaemia cells, TNF dual-luciferase reporter clone, PMA-differentiated to macrophage-like cells
# Reagents: siRNA pool against human genes, 50 nM
# Time to read-out: LPS for 4 h, given about 3 days after siRNA transfection
# Treatment: bacterial LPS (TLR4 ligand), 10 ng/ml
# Detection: 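Ratio of firefly to renilla light, scaled to the plate median and expressed as a robust z-score per replicate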
# Direction: TNF reporter robust z-score: higher = stronger TNF reporter response to LPS
# Hit rule: 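a well is active when its z-score exceeds 2.8 or falls below -1.5; control wells carry no call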
# In all, the deposit lists about 18,000 reagents; this is a random part of them. Over the whole deposit, about 2,900 (16%) are marked active. 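Calls are made per well; low scores hint the gene aids the LPS response, high scores that it dampens it.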 Unmarked entries are inactive. Repeated entries: four replicate wells of each siRNA pool.
gene symbol,TNF reporter robust z-score
ARFGEF2 (ARF guanine nucleotide exchange factor 2),0.45
ARFGEF2 (ARF guanine nucleotide exchange factor 2),1.52
ARFGEF2 (ARF guanine nucleotide exchange factor 2),-1.2
ARFGEF2 (ARF guanine nucleotide exchange factor 2),-0.98
FAM168B (family with sequence similarity 168 member B),-0.81
FAM168B (family with sequence similarity 168 member B),-0.21
FAM168B (family with sequence similarity 168 member B),-0.95
FAM168B (family with sequence similarity 168 member B),-1.58 (active)
CAMK2A (calcium/calmodulin dependent protein kinase II alpha),-0.12
CAMK2A (calcium/calmodulin dependent protein kinase II alpha),0.31
CAMK2A (calcium/calmodulin dependent protein kinase II alpha),0.88
CAMK2A (calcium/calmodulin dependent protein kinase II alpha),-0.58
MEF2C (myocyte enhancer factor 2C),-0.81
MEF2C (myocyte enhancer factor 2C),-0.86
MEF2C (myocyte enhancer factor 2C),-0.65
MEF2C (myocyte enhancer factor 2C),0.49
TRAP1 (TNF receptor associated protein 1),-0.84
TRAP1 (TNF receptor associated protein 1),-0.08
TRAP1 (TNF receptor associated protein 1),-0.39
TRAP1 (TNF receptor associated protein 1),-0.02
OXLD1 (oxidoreductase like domain containing 1),-0.59
OXLD1 (oxidoreductase like domain containing 1),0.35
OXLD1 (oxidoreductase like domain containing 1),0.68
OXLD1 (oxidoreductase like domain containing 1),0.3
URB2 (URB2 ribosome biogenesis homolog),0.94
URB2 (URB2 ribosome biogenesis homolog),3.22 (active)
URB2 (URB2 ribosome biogenesis homolog),3.28 (active)
URB2 (URB2 ribosome biogenesis homolog),3.8 (active)
STRIP2 (striatin interacting protein 2),-0.95
STRIP2 (striatin interacting protein 2),-0.33
STRIP2 (striatin interacting protein 2),-0.5
STRIP2 (striatin interacting protein 2),-0.17
TMEM192 (transmembrane protein 192),-0.07
TMEM192 (transmembrane protein 192),-0.39
TMEM192 (transmembrane protein 192),-0.54
TMEM192 (transmembrane protein 192),0.61
IL1RN (interleukin 1 receptor antagonist),-0.97
IL1RN (interleukin 1 receptor antagonist),-0.39
IL1RN (interleukin 1 receptor antagonist),-1.13
IL1RN (interleukin 1 receptor antagonist),-1.15
ARHGAP11A (Rho GTPase activating protein 11A),2.22
ARHGAP11A (Rho GTPase activating protein 11A),0.75
ARHGAP11A (Rho GTPase activating protein 11A),2.86 (active)
ARHGAP11A (Rho GTPase activating protein 11A),-0.63
NIP7 (nucleolar pre-rRNA processing protein NIP7),0.73
NIP7 (nucleolar pre-rRNA processing protein NIP7),-0.33
NIP7 (nucleolar pre-rRNA processing protein NIP7),0.21
NIP7 (nucleolar pre-rRNA processing protein NIP7),0.38
SCNN1G (sodium channel epithelial 1 subunit gamma),-1.05
SCNN1G (sodium channel epithelial 1 subunit gamma),-1.14
SCNN1G (sodium channel epithelial 1 subunit gamma),-0.43
SCNN1G (sodium channel epithelial 1 subunit gamma),-0.82
ACVR1 (activin A receptor type 1),0.13
ACVR1 (activin A receptor type 1),0.26
ACVR1 (activin A receptor type 1),0.48
ACVR1 (activin A receptor type 1),1

Next part, starting with the last 16 of the part before.
gene symbol,TNF reporter robust z-score
ARHGAP11A (Rho GTPase activating protein 11A),2.22
ARHGAP11A (Rho GTPase activating protein 11A),0.75
ARHGAP11A (Rho GTPase activating protein 11A),2.86 (active)
ARHGAP11A (Rho GTPase activating protein 11A),-0.63
NIP7 (nucleolar pre-rRNA processing protein NIP7),0.73
NIP7 (nucleolar pre-rRNA processing protein NIP7),-0.33
NIP7 (nucleolar pre-rRNA processing protein NIP7),0.21
NIP7 (nucleolar pre-rRNA processing protein NIP7),0.38
SCNN1G (sodium channel epithelial 1 subunit gamma),-1.05
SCNN1G (sodium channel epithelial 1 subunit gamma),-1.14
SCNN1G (sodium channel epithelial 1 subunit gamma),-0.43
SCNN1G (sodium channel epithelial 1 subunit gamma),-0.82
ACVR1 (activin A receptor type 1),0.13
ACVR1 (activin A receptor type 1),0.26
ACVR1 (activin A receptor type 1),0.48
ACVR1 (activin A receptor type 1),1
ADTRP (androgen dependent TFPI regulating protein),1.2
ADTRP (androgen dependent TFPI regulating protein),0.41
ADTRP (androgen dependent TFPI regulating protein),0.23
ADTRP (androgen dependent TFPI regulating protein),0.44
RUMY4 (RUMY family member 4),-0.47
RUMY4 (RUMY family member 4),-0.89
RUMY4 (RUMY family member 4),-1.16
RUMY4 (RUMY family member 4),0.64
NR1H3 (nuclear receptor subfamily 1 group H member 3),-0.27
NR1H3 (nuclear receptor subfamily 1 group H member 3),0.18
NR1H3 (nuclear receptor subfamily 1 group H member 3),-0.44
NR1H3 (nuclear receptor subfamily 1 group H member 3),-0.61
CD244 (CD244 molecule),0.29
CD244 (CD244 molecule),0.17
CD244 (CD244 molecule),-0.36
CD244 (CD244 molecule),-0.47
ZNF274 (zinc finger protein 274),-0.88
ZNF274 (zinc finger protein 274),-0.64
ZNF274 (zinc finger protein 274),-0.25
ZNF274 (zinc finger protein 274),-0.49
NLRP13 (NLR family pyrin domain containing 13),0.53
NLRP13 (NLR family pyrin domain containing 13),1.85
NLRP13 (NLR family pyrin domain containing 13),0.89
NLRP13 (NLR family pyrin domain containing 13),2.03
"PKDCC (protein kinase domain containing, cytoplasmic)",1.85
"PKDCC (protein kinase domain containing, cytoplasmic)",4.92 (active)
"PKDCC (protein kinase domain containing, cytoplasmic)",2.35
"PKDCC (protein kinase domain containing, cytoplasmic)",4.06 (active)
UBR4 (ubiquitin protein ligase E3 component n-recognin 4),1.56
UBR4 (ubiquitin protein ligase E3 component n-recognin 4),0.43
UBR4 (ubiquitin protein ligase E3 component n-recognin 4),-0.13
UBR4 (ubiquitin protein ligase E3 component n-recognin 4),1.5
NLRP9 (NLR family pyrin domain containing 9),-0.61
NLRP9 (NLR family pyrin domain containing 9),-0.94
NLRP9 (NLR family pyrin domain containing 9),0.68
NLRP9 (NLR family pyrin domain containing 9),-1.28
CALR3 (calreticulin 3),0.45
CALR3 (calreticulin 3),0.13
CALR3 (calreticulin 3),-0.23
CALR3 (calreticulin 3),1.01
ZNF501 (zinc finger protein 501),-1.63 (active)
ZNF501 (zinc finger protein 501),-1.26
ZNF501 (zinc finger protein 501),-1.19
ZNF501 (zinc finger protein 501),-0.45
CWC27 (CWC27 spliceosome associated cyclophilin),-0.64
CWC27 (CWC27 spliceosome associated cyclophilin),-0.56
CWC27 (CWC27 spliceosome associated cyclophilin),0.09
CWC27 (CWC27 spliceosome associated cyclophilin),0.51
MBTD1 (mbt domain containing 1),0.68
MBTD1 (mbt domain containing 1),0.95
MBTD1 (mbt domain containing 1),0.86
MBTD1 (mbt domain containing 1),0.79
CEP126 (centrosomal protein 126),-0.74
CEP126 (centrosomal protein 126),0
CEP126 (centrosomal protein 126),0.14
CEP126 (centrosomal protein 126),-0.38
